Some of the results follow.
B1: il2ra_site1_2b5i_normal_mot_a7d4ab743ae57deeac5d741f7278d18b_0001_af2_000000162_0001_36_49_H_._HHH_b1_05055_0001_0000100007_0000001_0_af2pred_dldesign_0_af2pred (protein)
chain: SSSNPLALKVYKLTKKMLEKLKSLGDPEAIRETAAEATARLNALGAPELAAELRAYTEALLSSSS
B2: il2ra_site1_2b5i_sap_11_mot_HHH_b2_04131_000000150_0001_1_16_H_._HHH_b1_06460_af2_0001_0000400019_0000001_0_0001_af2pred_dldesign_0_af2pred (protein)
chain: SSSSSPKREEVERLIEKAKELKAAGKLREALELLEKAYKLAAEAEDDELMDRIEELVRELSSSSS
B3: il2ra_site2_2erj_sap_23_mot_cf89365494dbba80ae51c8475d1ce666_0001_af2_000000081_0001_35_48_H_._HHH_b2_04892_af2_0001_0000300033_0000001_0_0001 (protein)
chain: SSSSNEELKRLYELANRIMELLAKGNQEEAEELVEELKELARKFGSDNAREIAEWLERKVNSSSS
B4: il2ra_site1_1z92_normal_mot_ems_4hM_4976_0002_000000264_0001_48_63_H_._0f30012763798aa20df1e24f2283b1b8_0001_1_0001_0000100008_0000001_0_af2pred_0001_af2pred (protein)
chain: DEEELKELAERVGVPPEQIKRAIEAVREFSKLPPRNAEKFFRQIVRKLEEGDPTAERSLRDLLEL
B5: il2ra_site2_3nfp_sap_21_mot_HHH_b1_07789_af2_000000124_0001_43_56_H_._23585b24c41abd7baf29a1ffab7efa73_0001_af2_0001_0000500005_0000001_0_0001 (protein)
chain: SSSSDDHELYERVAELLKRANKIEDEEEVRRLLEEAEELAEEGNSPVLKRSVEFVAKALLSSSSS
B6: il2ra_site1_1z92_sap_13_mot_b1fbee8209167eaadba3689d49187f1a_0001_1_af2_000000019_0001_16_31_H_._HEEHE_2194_af2_0001_0000400022_0000001_0_0001_af2pred_0001_af2p … (protein)
chain: SSSSSSKEKNARIIVEMAVRNAGLSEEQEEELRKLAEELAEEGLSFEEISRILDKLALELSSSSS
B7: il2ra_site2_3nfp_sap_19_mot_HHH_b1_05208_af2_000000289_0001_23_38_H_._HHH_b1_06843_0002_0000700032_0000001_0_0001 (protein)
chain: SSDYELSIKLIVAHAAQFVSPEQAKKLEELLEKDEELALEIAHYLARVDQEEAEEWIKELVEMSS
B8: il2ra_site2_2erj_normal_mot_HHH_b1_02106_af2_000000056_0001_20_36_H_._HHH_b1_08028_0001_0000400037_0000001_0 (protein)
chain: SSSSDLEEEVEQLIREAEELSRKDPEEAFRVLREASEIAIELGNFELFDEIAELLREIAELSSSS
B9: il2ra_site1_3nfp_normal_mot_HHH_b2_04095_af2_000000160_0001_43_56_H_._5a7f42ee72c73fa248482b5f4de50dd1_0001_0001_0000100002_0000001_0 (protein)
chain: SEKAIEQIVRAIKKQARDPEVEEILEEVEELLKKDPEEAIRLLLELAEKLGDKIAERLLRQLLEL
B10: il2ra_site2_3nfp_normal_mot_HHH_b2_02437_000000052_0001_42_56_H_._HHH_b1_07210_0001_0000400027_0000001_0 (protein)
chain: SSSSDEEEVERLLEEAQELIRQGNPEEAREALARATHIAYENRNAELFALIAEVLLLLAKLSSSS
B11: il2ra_site2_3nfp_normal_mot_73f63e3ba0c5fbd29b02c38bc3203c89_0001_1_000000101_0001_17_33_H_._HHH_b2_06677_0001_0000100009_0000001_0 (protein)
chain: SSSSEEEERIRELLEELERVLKEGDEEEARRLEREIVNLIYETNNHELFALLQEIIIRFLRSSSS
B12: il2ra_site2_2erj_sap_23_mot_dcd9809507f71d420582ead1f1e1bbb3_0001_000000226_0001_37_50_H_._0d160416ff403e1e2deb16f10056a110_0001_0001_0000700021_0000001_0_0001_ … (protein)
chain: SSSSSSSEDEERVEELLEQAKRIPNIKEALKLLEEAAKIALESNNEELVELIDRVLQELSSSSSS
B13: il2ra_site1_1z92_normal_mot_54e474eed2d0515e81978198f0f96ec2_0001_000000202_0001_15_30_H_._15f70e71ac3214bf43105af5abf4654e_0001_1_af2_0001_0000200012_0000001_0 … (protein)
chain: SEEAARKDLQRSLELGVPPRSVVLAVLRALERHLGDPEEALEVIERAIELLNDPELREVVEKLKP
B14: il2ra_site1_2b5i_sap_10_mot_HHH_b1_06833_000000178_0001_1_19_H_._HHH_b1_07629_0001_0000100001_0000001_0_0001_af2pred_dldesign_0_af2pred (protein)
chain: SSSSRESLERYARRLARMLARAAGLSEEAFRELEAEGIRLLEEGVSPREVFERLSARAIELSSSS
B15: il2ra_site2_3nfp_normal_mot_HHH_b2_06150_000000217_0001_39_53_H_._HHH_b1_05978_0001_0000600023_0000001_0 (protein)
chain: SSSSSEEEFEELHRRLEEAAEKGDEERFRELSALITHLAYELRDPRLFAIVAELLYLFEKLSSSS
B16: il2ra_site1_3nfp_normal_mot_HHH_b1_03014_af2_000000204_0001_43_57_H_._HHH_b2_06925_0001_0000100001_0000001_0_1_af2pred_dldesign_0_af2pred (protein)
chain: SSSSSNKDEKYFEAVLRRLKNLTDPEKIKRLSDNALRTLKQANNPEKIAELEKLMAELESSSSSS
B17: il2ra_site1_1z92_normal_mot_HHH_b2_04974_000000012_0001_1_17_H_._HHH_b2_02129_af2_0001_0000100009_0000001_0_af2pred_0001_af2pred (protein)
chain: SSSSSDTDDELAEVVIRLAIELGLSIEQIKELHELAIELLQRGLSEEEIERLLEELAKRLSSSSS
B18: il2ra_site1_3nfp_normal_mot_05aa7e744345dd736dff7248ed86ef87_0001_1_000000048_0001_54_65_H_._HEEHE_2188_0001_0000500017_0000001_0 (protein)
chain: HQERAIERLVEDAARAAGVEEVSVSVENGEITVELRGDNEAARAVEEALKKLAELFGIPVEVEIN

Target: il2ra, P01589
Test: yeast display titration

Apparent Kd, inactive:
B1 no binding seen
B2 no binding seen
B3 no binding seen
B4 no binding seen
B5 no binding seen
B6 no binding seen
B7 no binding seen
B8 no binding seen
B9 no binding seen
B10 no binding seen
B11 no binding seen
B12 no binding seen
B13 no binding seen
B14 no binding seen
B15 no binding seen
B16 no binding seen
B17 no binding seen
B18 no binding seen

Already shown: an excerpt of the list.
Apparent Kd, inactive:
B2 no binding seen
B3 no binding seen

From article PMC10163288
